Measured values: PubChem BioAssay AID493014 (National Center for Advancing Translational Sciences (NCATS), 2011)
In all, about 340,000 compounds went through this assay and about 170 (0.05%) were called active. Inconclusive results, whose numbers are uncertain, are shown with a selection of clear calls. Calls follow the shape of the dose curve; as a rule, active = well fitted inhibition curve with a large enough effect in the signal ratio, with a control signal flat (not every such curve was filed as active); inconclusive = small, poorly fitted or top-dose-only effect, or effect the other way, or a change in a side signal; inactive = flat fitted curve, though single readings scatter; the % refers to the signal ratio. Potencies beside an inconclusive call are fits to weak or partial responses and may not hold up.

Test: qHTS Assay to Find Inhibitors of Chronic Active B-Cell Receptor Signaling;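 as to activity change, negative = inhibition: plate controls were basal doxycycline-induced cells for no effect and cells given 10 µM MG132 for full effect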
Settings: ABC-DLBCL IkBa-CBG/CBR reporter, luminescence ratio (green luciferase fused to IkBa over red control in TMD8 lymphoma cells), 4 h; activity change, negative = inhibition: at 46.1 µM (top of the series) unless noted
Method in brief: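 TMD8 human ABC-DLBCL cells with doxycycline-inducible IκBα–green luciferase fusion and unfused red luciferase, in 0.5% FBS medium; compounds up to 46 uM, 4 h at 37C. Green/red luminescence ratio, filter-overlap corrected, fitted to concentration-response curves.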
Potency is read from the fitted curve at half-maximal effect.

Structure (SMILES)	activity change, negative = inhibition	Potency
O=C(CN1CCN(S(=O)(=O)c2ccccc2[N+](=O)[O-])CC1)Nc1ccc(N2CCOCC2)cc1	inactive	
COC(=O)C1=C(C)N(c2cc(C)cc(C)c2)/C(=C/c2ccco2)C1=O	inconclusive: -1.04%	
COc1ccc(CCNC(=O)CCS(=O)(=O)c2ccc3c(c2)NC(=O)C(C)S3)cc1OC (stereo not drawn)	inactive	
COc1ccc(OCCCN(C)Cc2ccccc2)cc1	inactive	
COc1cccc(C(=O)C2CCCN(C(=O)c3ccc(C#CC(C)(C)O)cc3)C2)c1 (stereo not drawn)	inactive	
O=C(CCNC(=O)c1ccccc1Cl)Nc1cc(S(=O)(=O)N2CCOCC2)ccc1N1CCCC1	inconclusive: 4.32%	
CCOc1ccc(NC(=O)CSc2nccn2C)cc1	inconclusive: 5.87%	
COc1ccc(-c2nc(-c3cccnc3)no2)cc1OC		inconclusive: 35.5 µM [falling, single point]
Cc1ccc(S(=O)(=O)N2CCOC2CNC(=O)C(=O)NCCc2ccc(S(N)(=O)=O)cc2)cc1 (stereo not drawn)	inconclusive: -11.2%	
COc1ccc(S(=O)(=O)N2CN3CCN(C3)C2)cc1OC	inactive	
Cc1cc(C)nc(SCc2nnc(SCC#N)n2-c2cccc(Cl)c2)n1	inactive	
CC(=O)Nc1ccc(NC(C)=O)s1	inconclusive: 3.87%	
Cc1cc(C)cc(N2C(=O)N(CC(=O)c3ccc(Br)cc3)c3ccccc3S2(=O)=O)c1	inconclusive: 6.5%	
Cc1nn(C(=O)c2cccc([N+](=O)[O-])c2)c(C)c1Sc1ccccc1		inconclusive: 3.55 µM [falling, single point]
C=CCc1c(C)nc(-c2ccccc2)nc1N/N=C/c1ccncc1	inconclusive: 33.5%	
COc1ccccc1OCc1nnc(SCC(=O)NCc2ccco2)n1-c1ccccc1	inconclusive: 18.6%	
O=C(Cc1ccccc1)N1CCc2ccccc21	inactive	
COc1cc(/C=C2\C(=O)NN(c3ccccc3)C2=O)ccc1OCC(N)=O		inconclusive: 11.2 µM [falling, partial curve, poor fit]
COc1cccc(C(=O)NNC(=O)CCN2CCN(c3ccccc3)CC2)c1	inactive	
OCCNc1nc(Nc2ccc(Cl)c(Cl)c2)nc2ccccc12	inconclusive: 6.71%	
Nn1c(-c2ccccn2)nnc1-c1ccccn1		inconclusive: 29.1 µM [falling, single point]
COc1ccc(CC(=O)Nc2oc(-c3ccccc3)c(-c3ccccc3)c2C#N)cc1OC		inconclusive: 5.8 µM [rising, partial curve]
O=C(NCCc1ccccn1)c1n[nH]c(=O)c2ccccc12	inconclusive: -6.08%	

Part of the list above in another layout.
Structure (SMILES) | activity change, negative = inhibition | Potency
O=C(CCNC(=O)c1ccccc1Cl)Nc1cc(S(=O)(=O)N2CCOCC2)ccc1N1CCCC1 | inconclusive: 4.32% | 
CC(=O)Nc1ccc(NC(C)=O)s1 | inconclusive: 3.87% | 
